Measurements published in the supplement of paper PMC10849652.
The list shows a part of the results.

Amino acid sequences for entries named in this document (tags omitted). A change or cut given only in a name is not applied to a line headed by its entry.
UniProt Q7Z4G1, whole entry, looked up: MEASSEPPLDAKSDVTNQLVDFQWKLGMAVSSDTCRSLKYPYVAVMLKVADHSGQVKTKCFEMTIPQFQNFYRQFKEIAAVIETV
UniProt A8TX70: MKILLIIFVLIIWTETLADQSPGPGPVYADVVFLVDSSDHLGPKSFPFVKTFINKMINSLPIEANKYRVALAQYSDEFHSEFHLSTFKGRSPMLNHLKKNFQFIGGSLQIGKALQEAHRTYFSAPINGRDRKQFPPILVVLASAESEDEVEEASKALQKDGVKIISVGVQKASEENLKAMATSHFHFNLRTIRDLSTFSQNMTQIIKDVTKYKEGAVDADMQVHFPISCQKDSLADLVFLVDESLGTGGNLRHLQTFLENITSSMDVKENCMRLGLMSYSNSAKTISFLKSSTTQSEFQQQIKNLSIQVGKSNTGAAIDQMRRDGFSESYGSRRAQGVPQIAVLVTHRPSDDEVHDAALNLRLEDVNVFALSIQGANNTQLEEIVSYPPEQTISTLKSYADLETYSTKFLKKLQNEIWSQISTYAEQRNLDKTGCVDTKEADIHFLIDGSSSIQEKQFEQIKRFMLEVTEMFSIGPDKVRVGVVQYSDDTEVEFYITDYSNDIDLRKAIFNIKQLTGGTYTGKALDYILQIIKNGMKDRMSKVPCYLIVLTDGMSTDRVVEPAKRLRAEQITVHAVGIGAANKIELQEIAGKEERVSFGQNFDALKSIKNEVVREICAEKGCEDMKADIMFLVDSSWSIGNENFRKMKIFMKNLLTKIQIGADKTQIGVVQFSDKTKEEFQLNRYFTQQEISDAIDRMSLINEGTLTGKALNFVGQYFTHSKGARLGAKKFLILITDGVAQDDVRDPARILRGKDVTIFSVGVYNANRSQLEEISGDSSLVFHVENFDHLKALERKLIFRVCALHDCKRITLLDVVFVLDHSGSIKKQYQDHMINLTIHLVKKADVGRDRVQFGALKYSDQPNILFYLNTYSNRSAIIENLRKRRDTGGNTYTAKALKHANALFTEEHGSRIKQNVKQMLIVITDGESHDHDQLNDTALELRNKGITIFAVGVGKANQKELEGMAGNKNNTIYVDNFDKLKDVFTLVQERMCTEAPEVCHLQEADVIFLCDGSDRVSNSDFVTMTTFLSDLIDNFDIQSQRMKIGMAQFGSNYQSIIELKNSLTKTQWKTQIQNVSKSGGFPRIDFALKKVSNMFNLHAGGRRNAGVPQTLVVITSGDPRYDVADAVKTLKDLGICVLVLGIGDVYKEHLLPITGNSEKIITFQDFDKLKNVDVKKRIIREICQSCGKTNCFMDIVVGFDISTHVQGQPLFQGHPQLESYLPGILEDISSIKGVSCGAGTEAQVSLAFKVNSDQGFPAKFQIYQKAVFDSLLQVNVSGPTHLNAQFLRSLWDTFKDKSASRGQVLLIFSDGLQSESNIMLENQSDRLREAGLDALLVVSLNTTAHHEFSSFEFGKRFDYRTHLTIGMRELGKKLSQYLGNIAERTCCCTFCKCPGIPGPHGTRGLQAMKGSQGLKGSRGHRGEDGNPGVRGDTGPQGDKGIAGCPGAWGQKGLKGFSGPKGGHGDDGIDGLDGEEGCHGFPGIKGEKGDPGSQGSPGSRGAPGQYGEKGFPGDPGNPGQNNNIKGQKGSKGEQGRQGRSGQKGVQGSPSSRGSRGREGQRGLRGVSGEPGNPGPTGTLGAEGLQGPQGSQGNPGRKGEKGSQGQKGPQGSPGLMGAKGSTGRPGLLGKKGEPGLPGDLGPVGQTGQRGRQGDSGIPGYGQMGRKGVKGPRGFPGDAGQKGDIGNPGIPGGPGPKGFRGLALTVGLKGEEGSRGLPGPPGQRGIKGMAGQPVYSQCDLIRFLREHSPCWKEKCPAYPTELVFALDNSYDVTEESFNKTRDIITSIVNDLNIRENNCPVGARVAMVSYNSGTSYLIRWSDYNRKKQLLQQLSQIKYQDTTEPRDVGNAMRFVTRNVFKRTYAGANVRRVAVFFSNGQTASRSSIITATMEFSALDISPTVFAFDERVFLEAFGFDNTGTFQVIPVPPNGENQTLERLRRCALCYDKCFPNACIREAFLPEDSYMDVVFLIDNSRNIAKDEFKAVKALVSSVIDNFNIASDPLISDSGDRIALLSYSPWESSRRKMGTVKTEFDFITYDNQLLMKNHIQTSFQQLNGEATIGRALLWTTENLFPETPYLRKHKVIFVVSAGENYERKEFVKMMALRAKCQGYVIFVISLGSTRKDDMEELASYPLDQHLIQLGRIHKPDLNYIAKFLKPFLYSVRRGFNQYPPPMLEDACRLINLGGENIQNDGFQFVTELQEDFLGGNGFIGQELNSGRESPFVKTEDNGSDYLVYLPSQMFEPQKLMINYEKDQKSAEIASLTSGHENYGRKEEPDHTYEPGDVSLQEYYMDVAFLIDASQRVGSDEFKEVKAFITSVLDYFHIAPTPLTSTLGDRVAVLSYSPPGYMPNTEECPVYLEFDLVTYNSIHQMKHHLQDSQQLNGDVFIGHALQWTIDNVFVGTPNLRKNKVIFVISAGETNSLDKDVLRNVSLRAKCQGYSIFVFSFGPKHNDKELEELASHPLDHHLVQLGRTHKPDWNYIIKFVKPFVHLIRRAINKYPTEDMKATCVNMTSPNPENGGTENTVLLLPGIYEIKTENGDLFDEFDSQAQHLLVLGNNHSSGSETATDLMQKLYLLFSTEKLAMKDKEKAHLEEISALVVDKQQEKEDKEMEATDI
UniProt P31146: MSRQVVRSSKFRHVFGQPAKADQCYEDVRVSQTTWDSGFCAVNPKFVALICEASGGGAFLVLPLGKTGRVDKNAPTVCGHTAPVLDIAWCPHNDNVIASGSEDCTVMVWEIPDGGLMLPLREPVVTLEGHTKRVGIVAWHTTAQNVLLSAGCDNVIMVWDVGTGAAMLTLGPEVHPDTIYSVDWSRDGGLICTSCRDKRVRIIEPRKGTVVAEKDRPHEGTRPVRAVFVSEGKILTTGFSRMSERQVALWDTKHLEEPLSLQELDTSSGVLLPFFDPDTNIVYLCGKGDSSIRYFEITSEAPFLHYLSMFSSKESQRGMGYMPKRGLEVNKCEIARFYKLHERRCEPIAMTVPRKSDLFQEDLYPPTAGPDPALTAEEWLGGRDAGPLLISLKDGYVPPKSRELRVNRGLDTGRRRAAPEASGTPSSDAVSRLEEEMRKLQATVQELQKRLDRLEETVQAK
UniProt Q9Y646: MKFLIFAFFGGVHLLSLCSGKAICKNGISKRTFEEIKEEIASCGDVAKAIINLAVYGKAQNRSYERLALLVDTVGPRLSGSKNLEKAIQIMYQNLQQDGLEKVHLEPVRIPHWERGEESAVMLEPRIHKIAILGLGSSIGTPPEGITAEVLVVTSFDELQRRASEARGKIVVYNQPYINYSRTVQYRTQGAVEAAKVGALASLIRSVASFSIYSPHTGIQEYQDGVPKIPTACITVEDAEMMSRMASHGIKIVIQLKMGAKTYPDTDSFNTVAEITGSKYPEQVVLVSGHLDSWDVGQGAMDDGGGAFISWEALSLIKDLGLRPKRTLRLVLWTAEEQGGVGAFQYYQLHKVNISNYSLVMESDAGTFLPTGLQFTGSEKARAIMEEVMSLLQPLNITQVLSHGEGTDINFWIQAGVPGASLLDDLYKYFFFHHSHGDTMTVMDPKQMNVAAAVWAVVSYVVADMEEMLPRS
UniProt Q9UFF9, whole entry, looked up: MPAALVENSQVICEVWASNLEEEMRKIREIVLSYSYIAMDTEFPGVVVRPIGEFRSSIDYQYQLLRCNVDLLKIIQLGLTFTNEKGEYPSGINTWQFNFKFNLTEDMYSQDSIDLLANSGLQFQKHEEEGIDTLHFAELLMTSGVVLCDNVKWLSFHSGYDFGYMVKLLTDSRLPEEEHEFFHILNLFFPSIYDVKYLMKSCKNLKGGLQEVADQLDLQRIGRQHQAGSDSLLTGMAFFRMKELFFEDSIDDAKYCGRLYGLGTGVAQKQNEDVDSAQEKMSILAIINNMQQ
UniProt P61923: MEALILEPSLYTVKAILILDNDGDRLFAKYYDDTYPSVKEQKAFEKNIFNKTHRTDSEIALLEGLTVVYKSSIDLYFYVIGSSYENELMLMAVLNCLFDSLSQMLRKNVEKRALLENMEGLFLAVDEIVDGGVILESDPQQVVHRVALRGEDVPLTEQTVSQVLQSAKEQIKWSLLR
UniProt O75131: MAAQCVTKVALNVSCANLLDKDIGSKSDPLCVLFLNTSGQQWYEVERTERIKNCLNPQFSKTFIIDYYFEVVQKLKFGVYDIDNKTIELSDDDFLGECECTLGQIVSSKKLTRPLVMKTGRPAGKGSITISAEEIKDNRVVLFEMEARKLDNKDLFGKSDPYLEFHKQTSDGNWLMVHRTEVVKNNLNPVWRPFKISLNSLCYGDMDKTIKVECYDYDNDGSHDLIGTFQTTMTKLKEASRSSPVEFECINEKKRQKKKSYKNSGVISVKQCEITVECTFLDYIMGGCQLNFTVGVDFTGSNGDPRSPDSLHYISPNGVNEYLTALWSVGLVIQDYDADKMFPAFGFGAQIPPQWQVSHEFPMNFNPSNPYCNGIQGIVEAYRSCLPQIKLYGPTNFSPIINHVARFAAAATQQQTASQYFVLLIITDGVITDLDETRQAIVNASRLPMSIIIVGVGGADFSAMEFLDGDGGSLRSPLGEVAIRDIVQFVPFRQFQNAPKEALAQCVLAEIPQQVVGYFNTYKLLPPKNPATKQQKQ
UniProt A4D0V7: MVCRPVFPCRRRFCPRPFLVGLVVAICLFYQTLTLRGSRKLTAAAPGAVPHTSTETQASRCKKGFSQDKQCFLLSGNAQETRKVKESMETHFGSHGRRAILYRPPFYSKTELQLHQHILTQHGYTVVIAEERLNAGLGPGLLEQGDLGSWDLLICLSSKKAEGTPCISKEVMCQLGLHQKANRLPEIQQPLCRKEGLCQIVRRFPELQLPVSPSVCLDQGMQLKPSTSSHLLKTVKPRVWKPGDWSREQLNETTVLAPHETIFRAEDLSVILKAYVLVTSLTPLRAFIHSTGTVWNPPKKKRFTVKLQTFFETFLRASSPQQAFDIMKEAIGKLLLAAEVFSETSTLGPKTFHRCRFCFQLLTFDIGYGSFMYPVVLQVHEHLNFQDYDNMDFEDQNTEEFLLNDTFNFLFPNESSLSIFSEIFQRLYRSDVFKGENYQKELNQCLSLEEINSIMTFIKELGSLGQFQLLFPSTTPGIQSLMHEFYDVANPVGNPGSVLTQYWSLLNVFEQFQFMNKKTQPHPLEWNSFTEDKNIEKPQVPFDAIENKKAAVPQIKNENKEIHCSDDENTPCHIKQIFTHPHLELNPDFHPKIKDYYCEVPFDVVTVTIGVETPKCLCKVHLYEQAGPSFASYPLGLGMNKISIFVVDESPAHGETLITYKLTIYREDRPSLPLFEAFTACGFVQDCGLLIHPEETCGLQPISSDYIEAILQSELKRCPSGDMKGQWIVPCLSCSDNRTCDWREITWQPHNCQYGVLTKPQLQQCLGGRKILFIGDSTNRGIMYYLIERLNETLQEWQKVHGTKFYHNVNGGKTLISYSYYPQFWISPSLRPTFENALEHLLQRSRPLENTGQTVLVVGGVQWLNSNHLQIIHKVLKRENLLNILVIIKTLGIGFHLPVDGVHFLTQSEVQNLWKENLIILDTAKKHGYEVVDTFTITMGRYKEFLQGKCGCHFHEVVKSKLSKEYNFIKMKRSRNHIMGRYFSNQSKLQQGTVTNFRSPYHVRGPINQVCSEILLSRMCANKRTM
UniProt P61201: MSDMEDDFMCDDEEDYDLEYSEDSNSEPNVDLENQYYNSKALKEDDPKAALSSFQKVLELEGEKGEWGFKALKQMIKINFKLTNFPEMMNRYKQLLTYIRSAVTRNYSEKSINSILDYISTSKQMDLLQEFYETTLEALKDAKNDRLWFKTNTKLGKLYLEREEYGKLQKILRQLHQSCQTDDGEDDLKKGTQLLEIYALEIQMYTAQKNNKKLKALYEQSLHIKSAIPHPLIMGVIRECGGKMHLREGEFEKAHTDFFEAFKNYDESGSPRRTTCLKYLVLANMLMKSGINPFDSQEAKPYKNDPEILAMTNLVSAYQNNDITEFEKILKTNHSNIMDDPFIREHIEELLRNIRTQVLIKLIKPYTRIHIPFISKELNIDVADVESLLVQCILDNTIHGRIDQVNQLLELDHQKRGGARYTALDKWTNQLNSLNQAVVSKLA
UniProt Q5RI15: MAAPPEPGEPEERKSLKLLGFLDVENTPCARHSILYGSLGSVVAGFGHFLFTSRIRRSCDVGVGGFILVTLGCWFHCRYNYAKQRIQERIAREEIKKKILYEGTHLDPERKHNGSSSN
UniProt P09669, whole entry, looked up: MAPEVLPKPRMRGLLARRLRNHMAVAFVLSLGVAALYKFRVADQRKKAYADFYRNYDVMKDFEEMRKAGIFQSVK
UniProt Q9BT09: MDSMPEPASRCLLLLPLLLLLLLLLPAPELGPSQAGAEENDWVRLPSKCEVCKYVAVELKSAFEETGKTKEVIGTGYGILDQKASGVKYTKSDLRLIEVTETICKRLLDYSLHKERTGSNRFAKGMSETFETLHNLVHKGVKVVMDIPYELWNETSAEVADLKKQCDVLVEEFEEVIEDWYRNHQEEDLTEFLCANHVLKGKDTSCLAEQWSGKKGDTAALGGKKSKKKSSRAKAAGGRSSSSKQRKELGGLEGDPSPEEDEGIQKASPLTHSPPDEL

compound: NC(=O)c1cnc(N[C@@H]2CCCC[C@@H]2N)nc1Nc1cccc(-n2nccn2)c1; experiment: log2 fold change, soluble protein after heating vs DMSO (PISA); higher = thermal stabilisation; K562 lysate, 10 uM; active = over 0.2 and 3.5 SD of the protein, either way, in both replicates (recomputed)
Outline: (§1)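 Dounce homogenisation of K562 pellets in PBS pH 7.4 with 1 mM MgCl2 produced a crude extract, used at 1 mg/mL protein. Exposure to 10 μM compound lasted 30 min, and aliquots were then heated for 3 min across 48°C-58°C, pooled and brought to 0.5% NP-40 at 4°C. The supernatant after 21,000xg for 90 min was quantified by TMTpro 16plex LC-MS/MS with channel sums equalised. Duplicate values are given as log-two fold change in thermal stability relative to solvent controls.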

log2 fold change, inactive:
COMMD6 isoform 2 (UniProt Q7Z4G1) -0.016
COL6A5 (UniProt A8TX70) 0.051
COIL (UniProt P38432) -0.001
CORO1A (UniProt P31146) -0.017
COA1 (UniProt Q9GZY4) 0.017
CPSF7 isoform 3 (UniProt Q8N684) 0.01
CRABP2 (UniProt P29373) -0.036
CPQ (UniProt Q9Y646) -0.021
COMMD7 (UniProt Q86VX2) -0.005
COPB1 (UniProt P53618) 0.003
CNOT8 (UniProt Q9UFF9) 0.055
CPVL (UniProt Q9H3G5) 0.046
COA3 (UniProt Q9Y2R0) 0.017
CPNE1 (UniProt Q99829) -0.003
COA6 isoform 2 (UniProt Q5JTJ3) -0.04
CNPY4 (UniProt Q8N129) -0.077
COPZ1 isoform 4 (UniProt P61923) -0.103
CNOT4 isoform 6 (UniProt O95628) -0.022
CNNM3 (UniProt Q8NE01) 0.037
COMMD8 (UniProt Q9NX08) -0.034
COPA isoform 2 (UniProt P53621) -0.001
CPNE7 (UniProt Q9UBL6) 0.034
CPNE3 (UniProt O75131) 0.008
CNOT9 (UniProt Q92600) 0.01
COG7 (UniProt P83436) -0.019
CORO1C isoform 3 (UniProt Q9ULV4) -0.016
CPED1 (UniProt A4D0V7) 0.022
COPS2 isoform 2 (UniProt P61201) -0.016
CNP (UniProt P09543) -0.007
CPSF2 (UniProt Q9P2I0) 0.015
COQ8A (UniProt Q8NI60) 0.348
COX20 isoform 2 (UniProt Q5RI15) -0.058
CNN1 (UniProt P51911) 0.04
CNOT11 (UniProt Q9UKZ1) 0.017
COPS8 (UniProt Q99627) -0.036
COX6C (UniProt P09669) -0.037
CNPY3 (UniProt Q9BT09) -0.001
COX5B (UniProt P10606) -0.048
CPOX (UniProt P36551) -0.013
COPS5 (UniProt Q92905) -0.022

compound: NC1(c2ccc(-c3nc4ccn5c(=O)[nH]nc5c4cc3-c3ccccc3)cc2)CCC1; experiment: as above
Outline: as §1

log2 fold change, inactive:
COMMD6 isoform 2 (UniProt Q7Z4G1) -0.015
COL6A5 (UniProt A8TX70) -0.014
COIL (UniProt P38432) 0.016
CORO1A (UniProt P31146) -0.026
COA1 (UniProt Q9GZY4) -0.029
CPSF7 isoform 3 (UniProt Q8N684) 0.032
CRABP2 (UniProt P29373) -0.02
CPQ (UniProt Q9Y646) 0.022
COMMD7 (UniProt Q86VX2) -0.015
COPB1 (UniProt P53618) -0.012
CNOT8 (UniProt Q9UFF9) -0.013
CPVL (UniProt Q9H3G5) 0.054
COA3 (UniProt Q9Y2R0) 0.003
CPNE1 (UniProt Q99829) -0.032
COA6 isoform 2 (UniProt Q5JTJ3) 0
CNPY4 (UniProt Q8N129) 0.038
COPZ1 isoform 4 (UniProt P61923) 0.037
CNOT4 isoform 6 (UniProt O95628) 0.008
CNNM3 (UniProt Q8NE01) -0.035
COMMD8 (UniProt Q9NX08) 0.018
COPA isoform 2 (UniProt P53621) -0.002
CPNE7 (UniProt Q9UBL6) -0.053
CPNE3 (UniProt O75131) -0.04
CNOT9 (UniProt Q92600) -0.022
COG7 (UniProt P83436) 0.001
CORO1C isoform 3 (UniProt Q9ULV4) -0.01
CPED1 (UniProt A4D0V7) 0.162
COPS2 isoform 2 (UniProt P61201) -0.002
CNP (UniProt P09543) -0.009
CPSF2 (UniProt Q9P2I0) -0.022
COQ8A (UniProt Q8NI60) 0.004
COX20 isoform 2 (UniProt Q5RI15) -0.03
CNN1 (UniProt P51911) -0.009
CNOT11 (UniProt Q9UKZ1) -0.008
COPS8 (UniProt Q99627) -0.002
COX6C (UniProt P09669) 0.016
CNPY3 (UniProt Q9BT09) 0.012
COX5B (UniProt P10606) 0.034
CPOX (UniProt P36551) -0.018
COPS5 (UniProt Q92905) -0.016
